Results published in doi:10.1101/2024.12.20.629439.
These are yes or no findings as the source states them, for the method shown. Binding seen in cells or lysates may run through a third protein. Some binding calls cover weakened binding; strength is not graded here.

By UniProt entry, the sequences of proteins in these tests, tags left out.
UniProt P35579: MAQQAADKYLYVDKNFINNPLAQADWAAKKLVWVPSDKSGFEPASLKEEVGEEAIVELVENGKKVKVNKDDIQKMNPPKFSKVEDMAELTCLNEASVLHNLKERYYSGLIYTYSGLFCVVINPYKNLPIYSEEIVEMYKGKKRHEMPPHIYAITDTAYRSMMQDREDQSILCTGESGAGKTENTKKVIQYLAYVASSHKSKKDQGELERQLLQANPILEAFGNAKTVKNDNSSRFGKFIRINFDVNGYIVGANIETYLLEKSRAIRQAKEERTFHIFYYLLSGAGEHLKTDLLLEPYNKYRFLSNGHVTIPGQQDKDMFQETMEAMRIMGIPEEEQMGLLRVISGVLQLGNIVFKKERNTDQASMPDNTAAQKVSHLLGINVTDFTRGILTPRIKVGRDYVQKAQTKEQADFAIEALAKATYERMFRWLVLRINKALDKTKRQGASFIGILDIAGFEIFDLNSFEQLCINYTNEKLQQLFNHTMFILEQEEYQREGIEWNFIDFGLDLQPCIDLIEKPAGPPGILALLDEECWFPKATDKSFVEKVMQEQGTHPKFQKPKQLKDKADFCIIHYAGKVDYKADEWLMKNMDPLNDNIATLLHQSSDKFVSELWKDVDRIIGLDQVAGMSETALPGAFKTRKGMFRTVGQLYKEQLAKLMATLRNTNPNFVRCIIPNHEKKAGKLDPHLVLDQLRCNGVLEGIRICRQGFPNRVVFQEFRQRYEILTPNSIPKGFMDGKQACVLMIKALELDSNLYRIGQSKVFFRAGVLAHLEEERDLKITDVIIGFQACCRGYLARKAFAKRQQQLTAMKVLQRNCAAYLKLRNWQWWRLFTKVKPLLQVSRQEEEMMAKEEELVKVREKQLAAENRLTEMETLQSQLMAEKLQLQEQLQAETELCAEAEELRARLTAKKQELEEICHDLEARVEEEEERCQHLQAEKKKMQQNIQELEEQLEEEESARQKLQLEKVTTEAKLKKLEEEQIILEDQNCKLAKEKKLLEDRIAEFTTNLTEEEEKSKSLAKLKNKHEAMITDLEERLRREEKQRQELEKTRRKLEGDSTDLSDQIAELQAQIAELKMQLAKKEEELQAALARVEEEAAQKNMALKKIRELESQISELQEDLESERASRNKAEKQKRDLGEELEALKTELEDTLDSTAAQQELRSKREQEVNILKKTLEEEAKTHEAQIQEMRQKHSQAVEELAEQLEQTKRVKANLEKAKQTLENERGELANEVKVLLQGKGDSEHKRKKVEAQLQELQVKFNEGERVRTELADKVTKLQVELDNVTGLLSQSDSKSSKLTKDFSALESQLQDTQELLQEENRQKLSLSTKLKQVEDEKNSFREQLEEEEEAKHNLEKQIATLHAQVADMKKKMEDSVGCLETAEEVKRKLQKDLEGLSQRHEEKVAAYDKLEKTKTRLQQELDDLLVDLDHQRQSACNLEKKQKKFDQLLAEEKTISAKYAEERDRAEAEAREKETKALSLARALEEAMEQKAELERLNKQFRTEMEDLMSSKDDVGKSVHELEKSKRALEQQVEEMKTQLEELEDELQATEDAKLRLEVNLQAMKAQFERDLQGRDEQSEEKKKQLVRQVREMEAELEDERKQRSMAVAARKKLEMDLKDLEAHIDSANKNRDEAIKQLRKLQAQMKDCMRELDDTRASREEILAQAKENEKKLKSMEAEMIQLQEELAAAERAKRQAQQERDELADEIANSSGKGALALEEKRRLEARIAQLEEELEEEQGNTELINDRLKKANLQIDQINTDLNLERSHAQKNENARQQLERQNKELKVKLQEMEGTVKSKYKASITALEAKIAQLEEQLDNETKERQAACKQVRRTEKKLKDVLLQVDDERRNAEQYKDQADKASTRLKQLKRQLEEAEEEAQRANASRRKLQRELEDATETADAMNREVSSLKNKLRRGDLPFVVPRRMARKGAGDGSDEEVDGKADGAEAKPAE
UniProt Q13283: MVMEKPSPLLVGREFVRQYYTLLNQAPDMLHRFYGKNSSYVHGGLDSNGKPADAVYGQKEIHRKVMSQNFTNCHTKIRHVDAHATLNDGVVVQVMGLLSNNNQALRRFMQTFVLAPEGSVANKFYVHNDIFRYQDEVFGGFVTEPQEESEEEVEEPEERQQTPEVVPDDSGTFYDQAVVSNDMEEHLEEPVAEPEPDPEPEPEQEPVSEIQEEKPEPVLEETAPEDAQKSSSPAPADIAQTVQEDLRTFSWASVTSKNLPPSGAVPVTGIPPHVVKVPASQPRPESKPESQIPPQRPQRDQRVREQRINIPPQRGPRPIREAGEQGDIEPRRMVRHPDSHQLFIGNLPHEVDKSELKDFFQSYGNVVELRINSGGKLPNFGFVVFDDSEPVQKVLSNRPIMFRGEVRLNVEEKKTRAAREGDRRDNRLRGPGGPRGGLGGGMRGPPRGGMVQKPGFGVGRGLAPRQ

Target: Myosin heavy chain 9 (human (endogenous in hPASMCs)) (UniProt P35579)
Test: co-IP

In the case of “Ras GTPase-activating protein-binding protein 1 (from UniProt Q13283 1-466)”, the binding is reported as “binds”.
